Assay results from paper PMC11170731.
No constants are given. Whether binding was seen depends on the method and setting. In cells and extracts the contact can be indirect. A result given as binding can be weak or reduced; the word gives no strength. Sequences can lack the tags named with a protein.

Sequences of proteins named here, by UniProt entry; tags and fusion partners are left off. A change or cut given only in a name is not applied to a line headed by its entry.
UniProt Q08924: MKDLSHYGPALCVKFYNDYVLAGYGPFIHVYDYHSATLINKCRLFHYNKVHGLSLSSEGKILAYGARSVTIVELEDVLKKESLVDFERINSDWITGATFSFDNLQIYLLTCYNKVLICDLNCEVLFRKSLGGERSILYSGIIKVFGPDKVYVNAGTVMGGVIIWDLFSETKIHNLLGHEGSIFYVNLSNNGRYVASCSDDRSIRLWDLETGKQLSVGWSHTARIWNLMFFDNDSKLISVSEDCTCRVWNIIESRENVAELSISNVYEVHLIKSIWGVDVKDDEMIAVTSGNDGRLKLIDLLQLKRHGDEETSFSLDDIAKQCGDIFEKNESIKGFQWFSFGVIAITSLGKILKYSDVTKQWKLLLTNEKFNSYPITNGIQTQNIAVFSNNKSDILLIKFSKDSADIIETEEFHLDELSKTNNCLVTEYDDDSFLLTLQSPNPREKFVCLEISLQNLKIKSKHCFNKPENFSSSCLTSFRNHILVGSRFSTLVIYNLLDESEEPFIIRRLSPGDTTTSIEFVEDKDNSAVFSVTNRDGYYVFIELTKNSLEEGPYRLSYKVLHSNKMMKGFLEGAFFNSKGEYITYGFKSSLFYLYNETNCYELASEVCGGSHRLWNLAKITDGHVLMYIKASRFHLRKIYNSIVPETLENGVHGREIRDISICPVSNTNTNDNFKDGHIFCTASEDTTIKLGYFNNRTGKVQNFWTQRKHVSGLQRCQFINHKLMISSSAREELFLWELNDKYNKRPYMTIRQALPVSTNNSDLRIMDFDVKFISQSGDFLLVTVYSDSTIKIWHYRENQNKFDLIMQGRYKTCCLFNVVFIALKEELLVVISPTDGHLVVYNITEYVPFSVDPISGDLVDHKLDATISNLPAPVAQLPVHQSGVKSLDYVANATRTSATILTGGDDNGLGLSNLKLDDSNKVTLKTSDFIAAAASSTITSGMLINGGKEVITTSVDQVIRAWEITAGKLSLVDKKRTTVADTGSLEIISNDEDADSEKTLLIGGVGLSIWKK

Key:
[1] = molecular target: MORF-tagged Trm734-SDD200AAA (S. cerevisiae) (UniProt Q08924); assay: co-IP; MORF-tagged Trm734 variants coexpressed with Trm7-9myc in yeast; MORF-tagged proteins purified from crude extracts with IgG-Sepharose beads (bind the ZZ domain), eluted in SDS sample buffer; immunoblot with anti-protein A and anti-c-myc
[2] = molecular target: MORF-tagged Trm734-WSH220AAA (S. cerevisiae) (UniProt Q08924); assay: as above

binding [1]: binds
binding [2]: binds
B1: Trm7-9myc (enzyme, UniProt P38238 1-310)
chain: MGKSSKDKRDLYYRKAKEQGYRARSAFKLLQLNDQFHFLDDPNLKRVVDLCAAPGSWSQVLSRKLFDESPSSDKEDRKIVSVDLQPMSPIPHVTTLQADITHPKTLARILKLFGNEKADFVCSDGAPDVTGLHDLDEYVQQQLIMSALQLTACILKKGGTFVAKIFRGRDIDMLYSQLGYLFDKIVCAKPRSSRGTSLEAFIVCLGYNPPSNWTPKLDVNTSVDEFFQGCFLNKLCISDKLSHWNEEERNIAEFMACGSLQSFDSDATYHDLPSSVAGTSSSLDPVQSPTNPPYKKALELKRSGKLTRSV
